Measured values reported in the supplement of paper PMC12819154, “High-throughput peptide-centric local stability assay extends protein–ligand identification to membrane proteins, tissues and bacteria” (Nature Structural & Molecular Biology, 2025).
This is one part of the list. Most entries show no effect beyond the scatter of the controls.

Sequences of proteins named here, by UniProt entry; tags and fusion partners are left off. A change or cut given only in a name is not applied to a line headed by its entry.
UniProt Q9D0K0: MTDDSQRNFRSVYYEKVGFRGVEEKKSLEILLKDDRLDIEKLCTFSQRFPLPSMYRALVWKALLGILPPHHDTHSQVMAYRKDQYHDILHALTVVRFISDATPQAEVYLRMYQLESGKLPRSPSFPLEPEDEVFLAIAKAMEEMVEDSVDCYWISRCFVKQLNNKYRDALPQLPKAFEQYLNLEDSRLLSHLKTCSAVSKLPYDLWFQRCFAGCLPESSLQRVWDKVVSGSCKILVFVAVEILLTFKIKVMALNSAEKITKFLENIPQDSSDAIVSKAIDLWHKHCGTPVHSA
UniProt Q9CWE0: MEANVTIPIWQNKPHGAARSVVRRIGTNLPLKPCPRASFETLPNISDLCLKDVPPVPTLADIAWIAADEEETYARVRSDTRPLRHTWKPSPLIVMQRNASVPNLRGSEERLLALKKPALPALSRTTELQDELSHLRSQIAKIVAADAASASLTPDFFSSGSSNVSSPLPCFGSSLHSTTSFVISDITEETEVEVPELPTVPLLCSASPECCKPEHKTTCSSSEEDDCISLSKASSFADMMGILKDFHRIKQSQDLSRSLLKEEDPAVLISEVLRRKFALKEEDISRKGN
UniProt Q9CS42: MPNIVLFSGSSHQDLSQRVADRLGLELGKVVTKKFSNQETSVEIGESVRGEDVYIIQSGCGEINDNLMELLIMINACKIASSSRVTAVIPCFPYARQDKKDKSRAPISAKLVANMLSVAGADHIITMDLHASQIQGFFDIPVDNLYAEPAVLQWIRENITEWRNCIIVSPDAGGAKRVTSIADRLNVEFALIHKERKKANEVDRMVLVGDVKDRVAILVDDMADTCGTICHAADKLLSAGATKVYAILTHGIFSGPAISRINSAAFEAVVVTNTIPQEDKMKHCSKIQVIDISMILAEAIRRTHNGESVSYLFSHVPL
UniProt Q9CVD2: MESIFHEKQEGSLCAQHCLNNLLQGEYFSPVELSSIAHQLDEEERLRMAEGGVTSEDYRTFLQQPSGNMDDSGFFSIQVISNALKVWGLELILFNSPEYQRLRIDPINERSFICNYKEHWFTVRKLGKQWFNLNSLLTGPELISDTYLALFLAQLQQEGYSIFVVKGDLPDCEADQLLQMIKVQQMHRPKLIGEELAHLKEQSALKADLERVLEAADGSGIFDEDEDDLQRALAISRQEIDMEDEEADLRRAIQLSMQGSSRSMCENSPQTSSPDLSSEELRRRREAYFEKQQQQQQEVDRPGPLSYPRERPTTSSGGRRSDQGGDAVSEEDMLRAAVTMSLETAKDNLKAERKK
UniProt Q9CX99: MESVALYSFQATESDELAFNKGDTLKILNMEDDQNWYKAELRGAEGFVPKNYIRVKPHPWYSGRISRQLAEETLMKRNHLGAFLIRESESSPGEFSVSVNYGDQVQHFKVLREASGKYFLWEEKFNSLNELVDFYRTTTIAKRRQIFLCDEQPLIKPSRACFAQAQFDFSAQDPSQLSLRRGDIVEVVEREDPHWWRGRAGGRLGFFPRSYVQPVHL
UniProt Q9D074: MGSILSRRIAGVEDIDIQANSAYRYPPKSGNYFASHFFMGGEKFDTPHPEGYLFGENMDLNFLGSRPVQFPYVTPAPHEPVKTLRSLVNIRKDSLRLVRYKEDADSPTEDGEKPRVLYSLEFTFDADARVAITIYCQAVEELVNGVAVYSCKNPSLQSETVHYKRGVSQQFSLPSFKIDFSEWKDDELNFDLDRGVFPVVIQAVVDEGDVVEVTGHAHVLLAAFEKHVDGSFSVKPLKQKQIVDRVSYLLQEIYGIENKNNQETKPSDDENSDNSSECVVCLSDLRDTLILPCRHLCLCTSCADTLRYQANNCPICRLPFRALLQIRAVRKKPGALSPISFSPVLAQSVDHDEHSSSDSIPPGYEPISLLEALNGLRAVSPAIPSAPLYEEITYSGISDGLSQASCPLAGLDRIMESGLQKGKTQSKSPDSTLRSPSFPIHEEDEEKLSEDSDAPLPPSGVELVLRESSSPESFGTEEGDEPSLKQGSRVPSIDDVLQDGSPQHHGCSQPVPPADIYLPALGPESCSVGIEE
UniProt Q9CWB7: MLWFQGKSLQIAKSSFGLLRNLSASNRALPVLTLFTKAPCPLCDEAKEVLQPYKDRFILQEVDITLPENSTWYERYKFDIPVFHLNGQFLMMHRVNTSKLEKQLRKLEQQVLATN
UniProt Q9D0B0, whole entry: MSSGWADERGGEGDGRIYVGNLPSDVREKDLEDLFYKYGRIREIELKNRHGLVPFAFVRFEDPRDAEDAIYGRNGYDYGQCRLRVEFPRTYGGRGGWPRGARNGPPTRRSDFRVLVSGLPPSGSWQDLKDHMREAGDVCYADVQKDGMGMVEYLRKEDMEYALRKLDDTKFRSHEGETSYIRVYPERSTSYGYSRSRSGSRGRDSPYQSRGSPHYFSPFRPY
UniProt Q9CZD3: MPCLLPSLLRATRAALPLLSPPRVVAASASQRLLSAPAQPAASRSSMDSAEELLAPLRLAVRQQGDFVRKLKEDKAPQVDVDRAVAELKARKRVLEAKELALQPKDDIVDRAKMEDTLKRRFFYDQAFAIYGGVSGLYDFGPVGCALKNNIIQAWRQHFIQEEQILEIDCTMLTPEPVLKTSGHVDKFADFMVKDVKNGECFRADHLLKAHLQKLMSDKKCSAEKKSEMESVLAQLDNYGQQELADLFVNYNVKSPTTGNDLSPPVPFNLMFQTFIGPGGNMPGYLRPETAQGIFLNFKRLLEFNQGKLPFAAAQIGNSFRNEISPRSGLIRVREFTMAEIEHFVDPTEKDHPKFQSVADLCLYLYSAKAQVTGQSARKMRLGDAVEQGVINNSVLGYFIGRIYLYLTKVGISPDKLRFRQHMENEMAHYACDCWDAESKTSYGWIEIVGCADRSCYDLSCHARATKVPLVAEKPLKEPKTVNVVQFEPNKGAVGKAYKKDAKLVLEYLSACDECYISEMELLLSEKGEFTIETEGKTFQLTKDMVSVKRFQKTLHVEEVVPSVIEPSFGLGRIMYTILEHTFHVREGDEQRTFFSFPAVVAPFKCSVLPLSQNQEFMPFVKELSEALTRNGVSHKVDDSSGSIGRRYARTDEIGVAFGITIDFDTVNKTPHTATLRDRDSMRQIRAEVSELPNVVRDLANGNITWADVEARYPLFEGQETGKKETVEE
UniProt Q9D0P8: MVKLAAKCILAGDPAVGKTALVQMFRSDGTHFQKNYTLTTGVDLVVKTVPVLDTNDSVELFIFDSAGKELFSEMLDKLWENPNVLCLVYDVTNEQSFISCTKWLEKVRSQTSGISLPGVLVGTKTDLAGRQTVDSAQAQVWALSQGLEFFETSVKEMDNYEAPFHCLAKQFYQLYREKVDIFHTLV
UniProt Q9CUX1: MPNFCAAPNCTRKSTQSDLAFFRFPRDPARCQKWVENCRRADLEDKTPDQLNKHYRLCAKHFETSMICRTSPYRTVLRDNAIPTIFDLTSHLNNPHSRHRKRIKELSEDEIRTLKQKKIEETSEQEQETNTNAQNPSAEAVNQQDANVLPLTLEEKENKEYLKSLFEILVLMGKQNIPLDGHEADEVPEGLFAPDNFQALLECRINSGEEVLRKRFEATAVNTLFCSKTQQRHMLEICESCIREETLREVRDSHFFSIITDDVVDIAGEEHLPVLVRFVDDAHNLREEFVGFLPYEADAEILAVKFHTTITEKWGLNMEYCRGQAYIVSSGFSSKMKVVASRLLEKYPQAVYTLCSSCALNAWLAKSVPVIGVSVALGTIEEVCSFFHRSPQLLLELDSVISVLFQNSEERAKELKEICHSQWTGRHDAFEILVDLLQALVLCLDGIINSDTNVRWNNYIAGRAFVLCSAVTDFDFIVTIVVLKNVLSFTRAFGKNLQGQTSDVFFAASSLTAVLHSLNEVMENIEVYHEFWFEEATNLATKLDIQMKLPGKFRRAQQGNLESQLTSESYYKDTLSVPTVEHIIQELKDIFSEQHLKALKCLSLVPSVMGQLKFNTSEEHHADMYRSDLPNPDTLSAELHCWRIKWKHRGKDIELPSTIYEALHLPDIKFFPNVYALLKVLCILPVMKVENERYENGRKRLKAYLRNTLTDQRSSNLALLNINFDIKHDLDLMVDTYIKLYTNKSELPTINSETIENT
UniProt Q9CRA9: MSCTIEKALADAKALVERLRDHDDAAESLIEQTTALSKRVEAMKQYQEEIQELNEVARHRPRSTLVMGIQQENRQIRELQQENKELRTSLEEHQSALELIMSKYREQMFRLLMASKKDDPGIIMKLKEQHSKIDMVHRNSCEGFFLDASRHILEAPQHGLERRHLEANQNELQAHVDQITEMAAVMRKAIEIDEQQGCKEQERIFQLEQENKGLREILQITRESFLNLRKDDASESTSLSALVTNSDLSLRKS
UniProt Q9CZJ2: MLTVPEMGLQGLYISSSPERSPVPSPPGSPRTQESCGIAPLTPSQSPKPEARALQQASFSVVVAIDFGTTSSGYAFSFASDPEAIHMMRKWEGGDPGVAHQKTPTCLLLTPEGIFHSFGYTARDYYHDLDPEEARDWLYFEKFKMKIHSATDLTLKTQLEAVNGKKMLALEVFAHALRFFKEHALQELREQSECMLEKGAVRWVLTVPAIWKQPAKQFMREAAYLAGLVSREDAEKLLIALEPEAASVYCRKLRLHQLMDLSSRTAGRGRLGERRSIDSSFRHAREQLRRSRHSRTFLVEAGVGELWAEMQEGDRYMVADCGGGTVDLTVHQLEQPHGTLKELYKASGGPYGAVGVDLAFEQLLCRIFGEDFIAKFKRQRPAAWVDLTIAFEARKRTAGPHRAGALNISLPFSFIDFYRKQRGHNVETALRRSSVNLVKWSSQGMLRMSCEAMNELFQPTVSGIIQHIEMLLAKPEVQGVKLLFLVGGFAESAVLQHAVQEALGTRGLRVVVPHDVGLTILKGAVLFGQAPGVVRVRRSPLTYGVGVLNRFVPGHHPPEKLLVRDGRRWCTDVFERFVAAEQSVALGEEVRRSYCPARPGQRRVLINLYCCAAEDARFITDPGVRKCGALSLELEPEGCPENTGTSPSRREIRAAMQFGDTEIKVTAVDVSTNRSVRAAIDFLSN
UniProt Q9CW42: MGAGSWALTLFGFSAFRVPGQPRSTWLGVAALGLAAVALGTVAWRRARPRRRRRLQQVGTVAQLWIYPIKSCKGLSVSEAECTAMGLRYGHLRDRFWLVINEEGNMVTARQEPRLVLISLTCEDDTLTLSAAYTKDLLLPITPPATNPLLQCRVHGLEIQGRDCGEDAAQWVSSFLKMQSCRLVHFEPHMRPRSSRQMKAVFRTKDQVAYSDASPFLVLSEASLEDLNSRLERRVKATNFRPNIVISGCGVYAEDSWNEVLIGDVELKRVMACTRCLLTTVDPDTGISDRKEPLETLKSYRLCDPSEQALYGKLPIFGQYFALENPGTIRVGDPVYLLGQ
UniProt Q9D0F4: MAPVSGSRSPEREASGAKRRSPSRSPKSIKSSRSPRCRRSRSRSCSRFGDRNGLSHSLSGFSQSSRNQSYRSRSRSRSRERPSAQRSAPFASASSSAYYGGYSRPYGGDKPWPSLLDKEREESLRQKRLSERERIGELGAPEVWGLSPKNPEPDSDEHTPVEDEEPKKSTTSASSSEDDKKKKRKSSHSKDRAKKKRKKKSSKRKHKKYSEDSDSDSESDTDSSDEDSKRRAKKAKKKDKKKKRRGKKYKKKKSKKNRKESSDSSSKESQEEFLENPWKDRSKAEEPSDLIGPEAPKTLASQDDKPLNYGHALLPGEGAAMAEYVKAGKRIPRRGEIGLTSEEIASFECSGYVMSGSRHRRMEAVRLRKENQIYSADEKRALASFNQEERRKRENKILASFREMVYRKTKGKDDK
UniProt Q9D0B6: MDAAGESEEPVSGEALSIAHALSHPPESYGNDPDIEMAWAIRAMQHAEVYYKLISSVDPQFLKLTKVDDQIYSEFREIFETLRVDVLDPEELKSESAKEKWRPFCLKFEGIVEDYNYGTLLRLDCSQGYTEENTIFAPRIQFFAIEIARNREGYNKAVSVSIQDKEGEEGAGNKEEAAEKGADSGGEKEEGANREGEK
UniProt Q9CYU6: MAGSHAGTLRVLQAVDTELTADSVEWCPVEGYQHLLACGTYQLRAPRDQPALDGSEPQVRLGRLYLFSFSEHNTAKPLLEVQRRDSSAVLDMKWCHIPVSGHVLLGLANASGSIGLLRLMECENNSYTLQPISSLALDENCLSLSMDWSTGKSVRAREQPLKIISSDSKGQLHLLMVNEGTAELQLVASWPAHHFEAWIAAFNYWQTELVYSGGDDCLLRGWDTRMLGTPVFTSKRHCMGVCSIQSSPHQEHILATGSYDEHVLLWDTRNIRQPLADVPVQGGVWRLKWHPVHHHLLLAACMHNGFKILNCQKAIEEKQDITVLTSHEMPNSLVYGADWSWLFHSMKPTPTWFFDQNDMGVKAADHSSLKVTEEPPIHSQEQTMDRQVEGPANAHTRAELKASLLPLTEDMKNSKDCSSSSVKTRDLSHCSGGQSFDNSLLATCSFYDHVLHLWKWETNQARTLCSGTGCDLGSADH
UniProt Q9CX53: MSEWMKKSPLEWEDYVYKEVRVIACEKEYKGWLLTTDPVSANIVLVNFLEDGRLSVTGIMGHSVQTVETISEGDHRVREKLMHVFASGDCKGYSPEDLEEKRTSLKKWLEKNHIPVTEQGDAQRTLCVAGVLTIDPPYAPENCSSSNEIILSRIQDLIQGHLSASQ

These targets were tested with CN[C@@H]1C[C@H]2O[C@@](C)([C@@H]1OC)n1c3ccccc3c3c4c(c5c6ccccc6n2c5c31)C(=O)NC4 [staurosporine] (assay: log2 fold change of tryptic peptide abundance, ligand vs vehicle (limited proteolysis) (log2 ratio); higher = more trypsin-susceptible (destabilized)). Details: ligand concentration: 20 uM; sample: mouse liver crude lysate; replicate design: treated separately.
“UniProt Q9D0K0 (peptide sequence: MYQLESGKLPR, peptide start residue: 111)” was tested, and the log2 fold change was 0.236.
With “UniProt Q9CWE0 (peptide sequence: IGTNLPLKPCPR, peptide start residue: 25)” the log2 fold change was 0.0829.
“UniProt Q9CS42 (peptide sequence: MVLVGDVK, peptide start residue: 205)” showed a log2 fold change of 0.102.
“UniProt Q9CVD2 (peptide sequence: EHWFTVR, peptide start residue: 118)” showed a log2 fold change of 0.217.
Target “UniProt Q9CU65 (peptide sequence: LTTCTGCR, peptide start residue: 532)” has a log2 fold change of -0.421.
For “UniProt Q9CX99 (peptide sequence: QIFLCDEQPLIKPSR, peptide start residue: 145)”, the log2 fold change was -0.234.
Target “UniProt Q9D074 (peptide sequence: IMESGLQK, peptide start residue: 414)” has a log2 fold change of -0.0891.
Target “UniProt Q9CYN2 (peptide sequence: SIFLVAHR, peptide start residue: 138)” has a log2 fold change of 0.449.
In the case of “UniProt Q9CWB7 (peptide sequence: KLEQQVLATN, peptide start residue: 106)”, the log2 fold change is reported as -0.37.
“UniProt Q9D0B0 (peptide sequence: DGMGMVEYLR, peptide start residue: 146)” gave a log2 fold change of 0.289.
In the case of “UniProt Q9CZD3 (peptide sequence: ELALQPKDDIVDR, peptide start residue: 99)”, the log2 fold change is reported as -0.215.
Target “UniProt Q9D0P8 (peptide sequence: EMDNYEAPFHCLAK, peptide start residue: 156)” has a log2 fold change of 0.355.
Work on “UniProt Q9CUX1 (peptide sequence: RADLEDKTPDQLNK, peptide start residue: 40)” yielded a log2 fold change of 0.468.
Work on “UniProt Q9CRA9 (peptide sequence: EILQITR, peptide start residue: 216)” yielded a log2 fold change of -0.176.
Work on “UniProt Q9CZJ2 (peptide sequence: LHQLMDLSSR, peptide start residue: 255)” yielded a log2 fold change of 0.398.
For “UniProt Q9CW42 (peptide sequence: RRLQQVGTVAQLWIYPIK, peptide start residue: 53)”, the log2 fold change was 0.256.
With “UniProt Q9D0F4 (peptide sequence: NGLSHSLSGFSQSSR, peptide start residue: 52)” the log2 fold change was -0.166.
Target “UniProt Q9CYC6 (peptide sequence: LYIIPGVPK, peptide start residue: 174)” has a log2 fold change of -0.391.
In the case of “UniProt Q9D0B6 (peptide sequence: LISSVDPQFLK, peptide start residue: 53)”, the log2 fold change is reported as -0.354.
Work on “UniProt Q9CZA6 (peptide sequence: AIKDQLQK, peptide start residue: 105)” yielded a log2 fold change of 0.304.
With “UniProt Q9CYU6 (peptide sequence: ASLLPLTEDMK, peptide start residue: 402)” the log2 fold change was 0.0907.
“UniProt Q9CZN8 (peptide sequence: NPAAHCGIVGFKPSYGLVSR, peptide start residue: 195)” gave a log2 fold change of -0.384.
“UniProt Q9CT10 (peptide sequence: ATAWTCLLEK, peptide start residue: 303)” showed a log2 fold change of 0.158.
“UniProt Q9CX53 (peptide sequence: GYSPEDLEEK, peptide start residue: 92)” showed a log2 fold change of -0.205.
